Test system: wild-type C57BL/6 (B6) mice
Experiment: Tail flick test (acute thermal pain)
Format: in vivo, mouse
Conditions: single dose subcutaneous injection, 30-120 min

CN1CC[C@]23c4c5ccc(O)c4O[C@H]2[C@@H](O)C=C[C@H]3[C@H]1C5.Cl [morphine, Morphine hydrochloride, reference compound]
antinociception (% of MPE, AUC): induced antinociception at doses of 2.4-7.2 mg/kg

Reference: patent US10597378B2 (priority 2017, dated 2020)
